Measured values published in US10376520B2, “Methods for the treatment of cardiovascular disorders” (Galapagos NV, priority 2015, dated 2019).
The source gives many values for each of these; only a part stands here.

Assays:
RA patients [1] = experiment: [HDL] determination, Study 2 (RA patients, monotherapy); format: in vivo, human; settings: 50 mg q.d. non responders switching to 100 mg q.d. at week 12
Description: Randomized, double-blind, placebo-controlled, multicenter, phase IIb dose finding study of Compound 1 (dosed as a [Compound 1:HCl:3H2O]) administered for 24 weeks as monotherapy to subjects with moderately to severely active rheumatoid arthritis who have an inadequate response to methotrexate alone
(§1) Double-blind, placebo-controlled, monotherapy study in subjects with moderately to severely active RA who have an inadequate response to methotrexate (MTX) (oral or parenteral).
280 subjects randomized to one of 3 doses of Compound 1 (dosed as a [Compound 1:HCl:3H2O]) or to placebo, given once daily (q.d.).
(§2) Twelve weeks of treatment with Compound 1 (dosed as a [Compound 1:HCl:3H2O]) at 50 mg, 100 mg, or 200 mg q.d.; or placebo. At Week 12, all subjects on placebo and the subjects on the 50 mg dose who have not achieved 20% improvement in swollen joint count (SJC66) and tender joint count (TJC68) will be assigned to 100 mg q.d. in a blinded fashion and will continue treatment until Week 24. Subjects in the other groups will maintain their randomized treatment until Week 24.
This assay relies on a homogeneous enzymatic colorimetric test. In the presence of magnesium ions, dextran sulfate selectively forms water-soluble complexes with LDL, VLDL and chylomicrons which are resistant to PEG-modified enzymes.
The cholesterol concentration of [HDL]-cholesterol is determined enzymatically by cholesterol esterase and cholesterol oxidase coupled with PEG to the amino groups (approx. 40%).
In the presence of peroxidase, the hydrogen peroxide generated reacts with 4-amino-antipyrine and Sodium N-(2-hydroxy-3-sulfopropyl)-3,5-dimethoxyaniline (HSDA) to form a purple-blue dye. The color intensity of this dye is directly proportional to the cholesterol concentration and is measured photometrically.
Human serum and plasma samples [HDL] determination was done on a Roche/Hitachi Cobas c 701/702 system which automatically calculate the analyte concentration of each sample. Samples containing precipitates are centrifuged before performing the assay.

RA patients [2] = experiment: Atherogenic index, Study 2 (RA patients, monotherapy); format: in vivo, human; settings: 50 mg q.d. responders
Description: As used herein, the term ‘atherogenic index’ refers to
as §1, §2
The atherogenic index has been identified to be a good predictor of cardiovascular disorders risks and is calculated as follows: […]

O=C(Nc1nc2cccc(-c3ccc(CN4CCS(=O)(=O)CC4)cc3)n2n1)C1CC1 [Compound 1, cyclopropanecarboxylic acid {5-[4-(1,1-dioxo-thiomorpholin-4-ylmethyl)-phenyl]-[1,2,4]triazolo[1,5-a]pyridin-2yl}-amide]
[HDL] Mean percentage CFB - 24 weeks results (RA patients [1]; week 12): 10.42%
[HDL] Mean percentage CFB - 24 weeks results (RA patients [1]; week 16): 14.57%
[HDL] Mean percentage CFB - 24 weeks results (RA patients [1]; week 20): 16.39%
[HDL] Mean percentage CFB - 24 weeks results (RA patients [1]; week 24): 20.96%
Atherogenic index Mean percentage CFB - 24 weeks results (RA patients [2]; week 20): −2.38%
Atherogenic index Mean percentage CFB - 24 weeks results (RA patients [2]; week 24): −6.03%
